# Screen size: about 230,000 compounds; about 310 (0.13%) were called active. Inconclusive results, whose numbers are uncertain, are shown with a selection of clear calls. Calls follow the shape of the dose curve; as a rule, active = well fitted activation curve with a large enough effect; inconclusive = small, poorly fitted or top-dose-only effect; inactive = no such curve, though single readings can be large or run the other way. Potencies of inconclusive entries are doubtful fits and often do not repeat.
# Assay: qHTS Multiplex Assay to Identify Dual Action Probes in a Cell Model of Huntington: Cytoprotection (ATP); also: nearly all actives have a fitted effect of over 45% in size;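 as to cytoprotection (ATP increase): toxic huntingtin expression switched on by the ecdysone agonist tebufenozide; % of control where 0% means no effect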
# Details: PC12 HTT-Q103 induced, ATP luminescence, 40 h; cytoprotection (ATP increase): at 56.4 µM (top of the series) unless noted
# In short: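 Compounds added alongside 100 nM tebufenozide, which induces toxic Q103 huntingtin exon 1-GFP in stable PC12 cells; surviving cells quantified by luminescent ATP measurement. Medium: phenol red-free DMEM, 5% equine and 5% calf serum.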
# Potency is read from the fitted curve at half-maximal effect.
SMILES,cytoprotection (ATP increase),Potency
Cc1sc2ncnc(N(C)Cc3cccs3)c2c1C,inactive: -3.79%,–
O=C(Nc1ccccc1OC(F)F)c1cc2c(s1)CCC2,inactive: 23.9% [at 1.9 µM],–
CCC(CO)[n+]1c(C)cc(/C=C2\Sc3ccccc3N2Cc2ccccc2)cc1C (centres undefined),inactive: -65.5% [at 10 µM],–
Cc1ccc(S(=O)(=O)N2CCOC2CNC(=O)C(=O)NCCc2c[nH]c3ccccc23)cc1 (centres undefined),–,"inconclusive: 0.794 µM [activator, single point]"
CCN(CC)S(=O)(=O)c1cccc(-c2nnc(SCC(=O)NCCC3=CCCCC3)n2N)c1,inactive: -28.9%,–
O=C(O)CNS(=O)(=O)c1ccc2[nH]c(=O)c(=O)[nH]c2c1,–,"inconclusive: 5.62 µM [activator, single point]"
CCc1cc2c(nc1CC)CCN(CC/C(C)=N/OC[C@@H](O)COCc1ccco1)C2,–,"inconclusive: 1.26 µM [activator, single point]"
CC(C)C[C@H]1C(=O)N2CCCC2[C@]2(O)O[C@](NC(=O)[C@@H]3C=C4c5cccc6[nH]c(Br)c(c56)C[C@H]4N(C)C3)(C(C)C)C(=O)N12 (some centres undefined),–,"inconclusive: 5.62 µM [activator, partial curve, poor fit]"
CCOC(=O)N=Nc1c(O)n(CC(=O)OC)c2ccccc12,–,"inconclusive: 0.891 µM [activator, partial curve]"
COc1ccc(-n2c(=O)c(-c3cccc(F)c3)nc3cncnc32)cc1,–,"inconclusive: 0.794 µM [activator, full curve, poor fit]"
CCCCC/C=C\C/C=C\C/C=C\CC1OC1CCCC(=O)O (centres undefined),–,"inconclusive: 3.55 µM [activator, single point]"
COc1ccc(-c2csc(NC(C)=O)n2)cc1OC,inactive: -9.64%,–
Cc1sc2nc(SCc3nc(-c4ccccc4)no3)n(-c3ccccc3)c(=O)c2c1C,–,"inconclusive: 3.55 µM [activator, partial curve]"
CCCCCOc1ccc(NC(=O)C(=O)NCCCn2ccnc2)cc1,–,"inconclusive: 15.8 µM [activator, partial curve, poor fit]"
O=C(c1ccc(F)cc1)c1cnc(Nc2ccccc2)s1,inactive: -131%,–
CC1=C(C(=O)c2ccccc2)C(c2ccc(OC(F)F)cc2)NC(=S)N1 (centres undefined),inactive: -40.7%,–
Cn1nc(-c2ccccc2)c(N2CCCCC2)cc1=O,inactive: -20.1%,–
CN1CCN(CC(=O)Nc2ccccc2[N+](=O)[O-])CC1,–,"inconclusive: 0.891 µM [activator, single point]"
Cc1ccc(OCc2nnc(NC(=O)c3ccco3)s2)c(C)c1,–,"inconclusive: 3.55 µM [activator, partial curve]"
CN(C)c1ccc(C(=O)c2ccccc2C(=O)O)cc1[N+](=O)[O-],–,"inconclusive: 0.0891 µM [activator, partial curve, poor fit]"
Cc1cccnc1Nc1nc(-c2ccccn2)cs1,inactive: -70.6% [at 10 µM],–
CCCCC#CC1C=CC(Oc2ccc(OC)cc2)C(CO)O1 (centres undefined),inactive: -4.11% [at 10 µM],–

# Random excerpt: 4 compounds from above
SMILES,cytoprotection (ATP increase),Potency
Cc1sc2nc(SCc3nc(-c4ccccc4)no3)n(-c3ccccc3)c(=O)c2c1C,–,"inconclusive: 3.55 µM [activator, partial curve]"
CCCCCOc1ccc(NC(=O)C(=O)NCCCn2ccnc2)cc1,–,"inconclusive: 15.8 µM [activator, partial curve, poor fit]"
Cc1cccnc1Nc1nc(-c2ccccn2)cs1,inactive: -70.6% [at 10 µM],–
CCCCC/C=C\C/C=C\C/C=C\CC1OC1CCCC(=O)O (centres undefined),–,"inconclusive: 3.55 µM [activator, single point]"

# Continued:

SMILES,cytoprotection (ATP increase),Potency
O=[n+]1c2c(n([O-])c3cc(F)ccc31)CCCC2,inactive: -9.62%,–
COc1ccc(NCC(=O)n2c(C)c(C)c3ccccc32)cc1OC,inactive: 6.36% [at 10 µM],–
COC(=O)CCC(=O)Oc1ccc(OC(=O)CCC(=O)OC)cc1,–,"inconclusive: 39.8 µM [activator, single point]"
CC(=O)N/N=C(\C)CC(=O)Nc1cccc2c1CCCC2,–,"inconclusive: 3.98 µM [activator, partial curve, poor fit]"
CCOC(=O)N1CCC(Nc2ccc(N3C(=O)C4CCCCC4C3=O)cc2[N+](=O)[O-])CC1 (centres undefined),–,"inconclusive: 1.12 µM [activator, partial curve]"
Cc1cc(Nc2cccc([N+](=O)[O-])c2)c2cccc(C)c2n1,–,"inconclusive: 6.31 µM [activator, single point]"
CC(C)c1cnc(NC(=O)Cc2ccccc2)s1,inactive: -2.22%,–
CCOC(=O)CC(=O)Nc1ccsc1C(N)=O,–,"inconclusive: 0.1 µM [activator, full curve, poor fit]"
CCN(Cc1ccccc1)C(=O)CS(=O)(=O)c1ccccc1,–,"inconclusive: 0.005 µM [activator, full curve, poor fit]"
COCCn1c(=NC(=O)/C=C/c2ccccc2)sc2cc(NC(C)=O)ccc21,inactive: 15.9% [at 10 µM],–
C[C@@H]1/C=C\CC(=O)OC[C@H](C)C(=O)N[C@@H](Cc2ccccc2)C(=O)OC1,–,"inconclusive: 1.26 µM [activator, single point]"
CCOC(=O)COc1c(Br)cc(/C=C2\SC(=O)N(CC(=O)N3CCCC3)C2=O)cc1OC,inactive: -22.2% [at 10 µM],–
CC(C)Cn1c(-c2ccncc2)n[nH]c1=S,–,"inconclusive: 2.51 µM [activator, single point]"
CC1=CC(C)(C)N=C(Nc2nc(C)c3cc(C)cc(C)c3n2)N1,–,"inconclusive: 1.26 µM [activator, single point]"
Cc1ccc2[nH]c3c(N4CCOCC4)ncnc3c2c1,inactive: -15.7%,–
CCN(CC)S(=O)(=O)c1ccc(O)c(C(=O)OCC(=O)Nc2ccc(OC(F)(F)F)cc2)c1,–,"inconclusive: 35.5 µM [activator, single point]"
CC1(C)CC(C)(c2ccc(O)cc2O)N(c2ccc3ccccc3c2)C(=S)N1 (centres undefined),inactive: 3.57% [at 10 µM],–
COc1cc2c(cc1OC)-c1cc(=Nc3c(C)cc(C)cc3C)n(C)c(=O)n1CC2,–,"inconclusive: 14.1 µM [activator, single point]"
CCNc1nc(NCC)nc(Oc2ccc(OCc3ccccc3)nn2)n1,–,"inconclusive: 5.01 µM [activator, single point]"
CO[C@@H]1COC(=O)[C@H]2CCCN2C(=O)[C@@H](C)COC(=O)CCC[C@H]1C,–,"inconclusive: 0.398 µM [activator, single point]"
CSC1=NCCN1S(=O)(=O)c1ccc2ccccc2c1,–,"inconclusive: 6.31 µM [activator, single point]"
Cc1ccc(CSc2nc3c(c(=O)[nH]2)C(c2ccncc2)C2=C(CCCC2=O)N3)cc1 (centres undefined),–,"inconclusive: 6.31 µM [activator, single point]"

# Source: PubChem BioAssay AID1471 (National Center for Advancing Translational Sciences (NCATS), 2008)
